# From patent publication US20180201654A1, “PEPTIDE INHIBITORS OF HAUSP DEUBIQUITINASE” (priority 2012, published 2018)
# Amino acid sequences for entries named in this document (tags omitted). A change or cut given only in a name is not applied to a line headed by its entry. Residues count along the entry.
# UniProt Q93009, residues 62-1102: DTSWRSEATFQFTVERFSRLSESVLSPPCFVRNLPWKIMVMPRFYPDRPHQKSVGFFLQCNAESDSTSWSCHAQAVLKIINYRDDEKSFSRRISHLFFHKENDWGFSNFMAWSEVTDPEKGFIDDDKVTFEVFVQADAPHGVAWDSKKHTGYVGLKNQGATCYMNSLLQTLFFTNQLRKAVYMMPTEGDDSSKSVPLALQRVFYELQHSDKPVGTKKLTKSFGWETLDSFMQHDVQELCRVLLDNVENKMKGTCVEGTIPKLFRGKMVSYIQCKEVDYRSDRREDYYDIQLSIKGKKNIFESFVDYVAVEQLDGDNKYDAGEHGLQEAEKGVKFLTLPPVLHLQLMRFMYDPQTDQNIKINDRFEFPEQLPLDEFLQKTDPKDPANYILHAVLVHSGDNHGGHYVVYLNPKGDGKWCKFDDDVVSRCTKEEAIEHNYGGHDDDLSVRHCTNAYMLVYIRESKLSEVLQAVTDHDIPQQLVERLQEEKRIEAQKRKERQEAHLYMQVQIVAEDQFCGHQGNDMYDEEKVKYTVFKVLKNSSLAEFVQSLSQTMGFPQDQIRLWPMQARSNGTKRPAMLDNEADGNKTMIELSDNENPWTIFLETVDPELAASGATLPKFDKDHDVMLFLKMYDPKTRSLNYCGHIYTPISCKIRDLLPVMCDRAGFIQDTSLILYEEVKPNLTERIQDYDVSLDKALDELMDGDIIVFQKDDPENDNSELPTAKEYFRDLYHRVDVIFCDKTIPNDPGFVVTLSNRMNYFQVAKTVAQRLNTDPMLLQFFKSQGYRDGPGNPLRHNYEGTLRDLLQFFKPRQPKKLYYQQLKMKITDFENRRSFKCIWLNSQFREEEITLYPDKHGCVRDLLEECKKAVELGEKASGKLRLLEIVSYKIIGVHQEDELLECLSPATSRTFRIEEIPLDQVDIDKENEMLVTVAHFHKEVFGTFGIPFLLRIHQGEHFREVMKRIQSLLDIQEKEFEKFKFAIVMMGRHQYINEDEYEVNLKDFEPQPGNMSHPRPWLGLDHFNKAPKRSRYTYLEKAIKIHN
# UniProt Q2HR73: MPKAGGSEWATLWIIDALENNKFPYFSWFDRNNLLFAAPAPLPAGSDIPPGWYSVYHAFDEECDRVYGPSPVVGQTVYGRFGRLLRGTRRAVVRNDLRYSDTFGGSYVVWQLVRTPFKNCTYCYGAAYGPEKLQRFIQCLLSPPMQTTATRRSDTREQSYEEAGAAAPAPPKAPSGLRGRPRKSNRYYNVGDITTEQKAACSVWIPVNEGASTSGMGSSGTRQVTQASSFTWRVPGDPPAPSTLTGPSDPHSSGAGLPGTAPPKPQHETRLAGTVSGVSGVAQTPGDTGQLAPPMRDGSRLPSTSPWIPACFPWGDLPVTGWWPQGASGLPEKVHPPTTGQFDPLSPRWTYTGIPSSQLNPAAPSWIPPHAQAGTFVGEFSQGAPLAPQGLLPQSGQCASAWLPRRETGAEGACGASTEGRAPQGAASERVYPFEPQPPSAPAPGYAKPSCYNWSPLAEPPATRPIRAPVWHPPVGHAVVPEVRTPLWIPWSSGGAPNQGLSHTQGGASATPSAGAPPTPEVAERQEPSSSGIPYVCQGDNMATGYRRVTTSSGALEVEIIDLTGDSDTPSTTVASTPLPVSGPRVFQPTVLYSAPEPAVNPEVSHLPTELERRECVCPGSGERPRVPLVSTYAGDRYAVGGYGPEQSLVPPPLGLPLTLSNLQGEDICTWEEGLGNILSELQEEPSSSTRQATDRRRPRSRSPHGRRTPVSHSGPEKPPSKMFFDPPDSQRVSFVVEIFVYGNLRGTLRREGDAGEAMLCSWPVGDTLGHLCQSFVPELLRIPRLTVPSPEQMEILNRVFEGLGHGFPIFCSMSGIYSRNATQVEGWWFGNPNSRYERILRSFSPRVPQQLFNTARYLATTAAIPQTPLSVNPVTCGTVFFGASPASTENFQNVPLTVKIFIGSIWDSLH
# No constants are given. Whether binding was seen depends on the method and setting. Binding seen in cells or lysates may run through a third protein. Some binding calls cover weakened binding; strength is not graded here.
# Target: Flag/HAUSP 62-1108 (human) (UniProt Q93009)
# Experiment: co-immunoprecipitation from transfected 293T cells, IP: V5, IB: Flag
substance,measurement,value
"vIRF4 (Kaposi's-sarcoma-associated-herpesvirus vIRF4), full length wild type (from UniProt Q2HR73 1-911)",binding,binds
